Article doi:10.1101/266833
Where two headings read alike, the source gives them in different places. No constants are given. Whether binding was seen depends on the method and setting. Binding seen in cells or lysates may run through a third protein. These calls come from enrichment with a bait or labelling near it, and not all partners need be listed.

What was measured:
Test in all cases: affinity purification with mass spectrometry
Ebs1-TAP (S. cerevisiae) = biological target: T1, Ebs1-TAP (S. cerevisiae) (UniProt Q03466)
T1 sequence: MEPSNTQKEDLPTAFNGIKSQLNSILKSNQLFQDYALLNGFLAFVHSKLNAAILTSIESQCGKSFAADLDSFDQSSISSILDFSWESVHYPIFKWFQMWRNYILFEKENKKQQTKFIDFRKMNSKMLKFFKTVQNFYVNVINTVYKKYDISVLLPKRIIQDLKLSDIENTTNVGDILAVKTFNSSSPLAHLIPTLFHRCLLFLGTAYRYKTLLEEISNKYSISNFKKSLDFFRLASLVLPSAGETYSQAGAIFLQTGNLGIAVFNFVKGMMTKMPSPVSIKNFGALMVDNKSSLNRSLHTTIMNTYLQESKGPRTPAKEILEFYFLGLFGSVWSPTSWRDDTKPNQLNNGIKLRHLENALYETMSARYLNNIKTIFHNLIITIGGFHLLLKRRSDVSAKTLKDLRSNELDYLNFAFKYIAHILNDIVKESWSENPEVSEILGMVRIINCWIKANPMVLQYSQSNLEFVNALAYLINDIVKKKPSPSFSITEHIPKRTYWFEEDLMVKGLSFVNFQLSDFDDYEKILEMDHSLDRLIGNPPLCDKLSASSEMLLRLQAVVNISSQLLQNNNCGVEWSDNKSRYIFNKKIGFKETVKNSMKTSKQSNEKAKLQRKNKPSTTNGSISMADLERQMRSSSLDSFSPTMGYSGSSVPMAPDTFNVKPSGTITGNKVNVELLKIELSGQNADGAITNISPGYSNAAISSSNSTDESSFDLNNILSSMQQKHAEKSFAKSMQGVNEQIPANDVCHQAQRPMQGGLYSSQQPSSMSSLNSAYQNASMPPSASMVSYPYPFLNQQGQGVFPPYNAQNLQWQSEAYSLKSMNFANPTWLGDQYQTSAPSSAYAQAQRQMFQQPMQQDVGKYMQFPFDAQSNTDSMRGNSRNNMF

Upf1-TAP (S. cerevisiae) [1] = biological target: T2, Upf1-TAP (S. cerevisiae) (UniProt P30771)
T2 sequence: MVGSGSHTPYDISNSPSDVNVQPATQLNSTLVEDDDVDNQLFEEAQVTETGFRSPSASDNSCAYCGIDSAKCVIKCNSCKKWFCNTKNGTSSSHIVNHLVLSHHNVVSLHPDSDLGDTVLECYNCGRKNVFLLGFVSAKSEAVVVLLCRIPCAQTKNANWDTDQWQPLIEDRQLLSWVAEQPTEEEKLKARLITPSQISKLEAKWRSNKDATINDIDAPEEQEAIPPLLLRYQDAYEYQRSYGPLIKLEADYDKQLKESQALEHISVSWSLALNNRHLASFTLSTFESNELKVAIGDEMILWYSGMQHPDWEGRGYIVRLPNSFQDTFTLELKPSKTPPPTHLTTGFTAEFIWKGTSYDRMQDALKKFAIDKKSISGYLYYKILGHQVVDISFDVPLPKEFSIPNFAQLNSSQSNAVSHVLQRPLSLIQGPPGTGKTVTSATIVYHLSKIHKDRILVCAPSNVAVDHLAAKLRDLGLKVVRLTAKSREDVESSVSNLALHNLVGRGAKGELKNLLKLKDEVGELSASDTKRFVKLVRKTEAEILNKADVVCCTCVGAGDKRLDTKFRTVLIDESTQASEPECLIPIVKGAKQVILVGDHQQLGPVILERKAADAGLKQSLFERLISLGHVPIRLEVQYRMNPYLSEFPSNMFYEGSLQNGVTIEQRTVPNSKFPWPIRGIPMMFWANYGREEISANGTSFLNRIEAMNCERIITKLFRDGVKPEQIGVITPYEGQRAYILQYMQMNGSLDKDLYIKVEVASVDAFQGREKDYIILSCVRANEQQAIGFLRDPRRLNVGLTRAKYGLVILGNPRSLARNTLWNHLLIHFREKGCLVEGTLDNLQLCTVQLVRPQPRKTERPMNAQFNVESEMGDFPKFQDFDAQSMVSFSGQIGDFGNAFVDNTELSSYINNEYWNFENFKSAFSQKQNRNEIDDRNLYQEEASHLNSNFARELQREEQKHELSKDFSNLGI

Dcp1-TAP (S. cerevisiae) = biological target: T3, Dcp1-TAP (S. cerevisiae) (UniProt Q12517)
T3 sequence: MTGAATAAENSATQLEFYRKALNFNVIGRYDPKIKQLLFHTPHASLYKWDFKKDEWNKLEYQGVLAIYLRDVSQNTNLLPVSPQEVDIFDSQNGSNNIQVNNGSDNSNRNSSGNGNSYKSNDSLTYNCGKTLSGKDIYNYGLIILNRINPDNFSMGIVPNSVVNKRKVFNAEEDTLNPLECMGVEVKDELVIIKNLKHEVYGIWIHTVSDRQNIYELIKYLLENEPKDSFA

Upf1-TAP (S. cerevisiae) [2] = biological target: T2, Upf1-TAP (S. cerevisiae); remark: listed apart in the source
[3] = biological target: T4, TAP-Upf1-FL (S. cerevisiae) (UniProt P30771)
T4 sequence: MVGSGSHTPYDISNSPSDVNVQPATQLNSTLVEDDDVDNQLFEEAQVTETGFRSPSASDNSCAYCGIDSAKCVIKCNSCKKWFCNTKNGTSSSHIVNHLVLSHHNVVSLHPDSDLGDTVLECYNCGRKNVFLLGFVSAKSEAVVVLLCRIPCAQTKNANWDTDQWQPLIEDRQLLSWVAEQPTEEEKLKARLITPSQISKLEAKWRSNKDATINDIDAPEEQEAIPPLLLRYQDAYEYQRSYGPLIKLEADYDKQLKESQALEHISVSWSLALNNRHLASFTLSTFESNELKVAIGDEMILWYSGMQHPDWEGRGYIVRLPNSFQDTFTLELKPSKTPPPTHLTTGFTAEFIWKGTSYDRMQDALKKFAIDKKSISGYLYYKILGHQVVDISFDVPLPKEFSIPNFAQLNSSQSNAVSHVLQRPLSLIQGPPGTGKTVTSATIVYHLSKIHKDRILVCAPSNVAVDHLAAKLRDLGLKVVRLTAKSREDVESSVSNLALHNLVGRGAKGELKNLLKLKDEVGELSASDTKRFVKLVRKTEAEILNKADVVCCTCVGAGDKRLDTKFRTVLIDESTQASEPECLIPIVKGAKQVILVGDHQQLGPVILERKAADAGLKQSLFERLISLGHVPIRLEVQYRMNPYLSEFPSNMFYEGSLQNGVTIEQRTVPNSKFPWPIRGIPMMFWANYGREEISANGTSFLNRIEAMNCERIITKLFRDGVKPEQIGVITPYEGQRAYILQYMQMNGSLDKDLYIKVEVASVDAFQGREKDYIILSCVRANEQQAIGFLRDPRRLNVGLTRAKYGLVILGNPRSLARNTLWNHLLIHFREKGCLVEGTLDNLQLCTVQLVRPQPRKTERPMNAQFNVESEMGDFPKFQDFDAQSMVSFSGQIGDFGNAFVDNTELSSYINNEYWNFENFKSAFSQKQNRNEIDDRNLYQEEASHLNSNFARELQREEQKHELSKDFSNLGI

[4] = biological target: T4, TAP-Upf1-FL (S. cerevisiae); remark: listed apart in the source
[5] = biological target: T5, TAP-Upf1-CH (2-208) (S. cerevisiae) (UniProt P30771)
T5 sequence: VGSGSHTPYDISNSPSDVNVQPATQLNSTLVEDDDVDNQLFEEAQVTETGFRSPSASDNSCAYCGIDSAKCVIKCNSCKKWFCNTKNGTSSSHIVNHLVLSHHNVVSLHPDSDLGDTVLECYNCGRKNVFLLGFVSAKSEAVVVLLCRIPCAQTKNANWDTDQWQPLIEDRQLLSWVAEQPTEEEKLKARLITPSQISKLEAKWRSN

[6] = biological target: T5, TAP-Upf1-CH (2-208) (S. cerevisiae); remark: listed apart in the source

Measured: binding

B1: Hrr25 (enzyme, UniProt P29295 1-494)
chain: MDLRVGRKFRIGRKIGSGSFGDIYHGTNLISGEEVAIKLESIRSRHPQLDYESRVYRYLSGGVGIPFIRWFGREGEYNAMVIDLLGPSLEDLFNYCHRRFSFKTVIMLALQMFCRIQYIHGRSFIHRDIKPDNFLMGVGRRGSTVHVIDFGLSKKYRDFNTHRHIPYRENKSLTGTARYASVNTHLGIEQSRRDDLESLGYVLIYFCKGSLPWQGLKATTKKQKYDRIMEKKLNVSVETLCSGLPLEFQEYMAYCKNLKFDEKPDYLFLARLFKDLSIKLEYHNDHLFDWTMLRYTKAMVEKQRDLLIEKGDLNANSNAASASNSTDNKSETFNKIKLLAMKKFPTHFHYYKNEDKHNPSPEEIKQQTILNNNAASSLPEELLNALDKGMENLRQQQPQQQVQSSQPQPQPQQLQQQPNGQRPNYYPEPLLQQQQRDSQEQQQQVPMATTRATQYPPQINSNNFNTNQASVPPQMRSNPQQPPQDKPAGQSIWL
binds: Ebs1-TAP (S. cerevisiae) | Upf1-TAP (S. cerevisiae) [1] | Dcp1-TAP (S. cerevisiae) | Upf1-TAP (S. cerevisiae) [2]

B2: Dcp1 (protein, UniProt Q12517 1-231)
chain: MTGAATAAENSATQLEFYRKALNFNVIGRYDPKIKQLLFHTPHASLYKWDFKKDEWNKLEYQGVLAIYLRDVSQNTNLLPVSPQEVDIFDSQNGSNNIQVNNGSDNSNRNSSGNGNSYKSNDSLTYNCGKTLSGKDIYNYGLIILNRINPDNFSMGIVPNSVVNKRKVFNAEEDTLNPLECMGVEVKDELVIIKNLKHEVYGIWIHTVSDRQNIYELIKYLLENEPKDSFA
binds: [3] | [4] | Ebs1-TAP (S. cerevisiae) | Upf1-TAP (S. cerevisiae) [1] | [5] | Upf1-TAP (S. cerevisiae) [2] | [6]

B3: Edc3 (protein, UniProt P39998 1-551)
chain: MSQFVGFGVQVELKDGKLIQGKIAKATSKGLTLNDVQFGDGGKSQAFKVRASRLKDLKVLTVASQSGKRKQQRQQQQQNDYNQNRGEHIDWQDDDVSKIKQQEDFDFQRNLGMFNKKDVFAQLKQNDDILPENRLQGHNRKQTQLQQNNYQNDELVIPDAKKDSWNKISSRNEQSTHQSQPQQDAQDDLVLEDDEHEYDVDDIDDPKYLPITQSLNITHLIHSATNSPSINDKTKGTVINDKDQVLAKLGQMIISQSRSNSTSLPAANKQTTIRSKNTKQNIPMATPVQLLEMESITSEFFSINSAGLLENFAVNASFFLKQKLGGRARLRLQNSNPEPLVVILASDSNRSGAKALALGRHLCQTGHIRVITLFTCSQNELQDSMVKKQTDIYKKCGGKIVNSVSSLESAMETLNSPVEIVIDAMQGYDCTLSDLAGTSEVIESRIKSMISWCNKQRGSTKVWSLDIPNGFDAGSGMPDIFFSDRIEATGIICSGWPLIAINNLIANLPSLEDAVLIDIGIPQGAYSQRTSLRKFQNCDLFVTDGSLLLDL
binds: [3] | [4] | Ebs1-TAP (S. cerevisiae) | Upf1-TAP (S. cerevisiae) [1] | [5] | Dcp1-TAP (S. cerevisiae) | Upf1-TAP (S. cerevisiae) [2] | [6]

B4: Dcp2 (enzyme, UniProt P53550 1-970)
chain: MSLPLRHALENVTSVDRILEDLLVRFIINCPNEDLSSVERELFHFEEASWFYTDFIKLMNPTLPSLKIKSFAQLIIKLCPLVWKWDIRVDEALQQFSKYKKSIPVRGAAIFNENLSKILLVQGTESDSWSFPRGKISKDENDIDCCIREVKEEIGFDLTDYIDDNQFIERNIQGKNYKIFLISGVSEVFNFKPQVRNEIDKIEWFDFKKISKTMYKSNIKYYLINSMMRPLSMWLRHQRQIKNEDQLKSYAEEQLKLLLGITKEEQIDPGRELLNMLHTAVQANSNNNAVSNGQVPSSQELQHLKEQSGEHNQQKDQQSSFSSQQQPSIFPSLSEPFANNKNVIPPTMPMANVFMSNPQLFATMNGQPFAPFPFMLPLTNNSNSANPIPTPVPPNFNAPPNPMAFGVPNMHNLSGPAVSQPFSLPPAPLPRDSGYSSSSPGQLLDILNSKKPDSNVQSSKKPKLKILQRGTDLNSIKQNNNDETAHSNSQALLDLLKKPTSSQKIHASKPDTSFLPNDSVSGIQDAEYEDFESSSDEEVETARDERNSLNVDIGVNVMPSEKDSRRSQKEKPRNDASKTNLNASAESNSVEWGPGKSSPSTQSKQNSSVGMQNKYRQEIHIGDSDAYEVFESSSDEEDGKKLEELEQTQDNSKLISQDILKENNFQDGEVPHRDMPTESNKSINETVGLSSTTNTVKKVPKVKILKRGETFASLANDKKAFDSSSNVSSSKDLLQMLRNPISSTVSSNQQSPKSQHLSGDEEIMMMLKRNSVSKPQNSEENASTSSINDANASELLGMLKQKEKDITAPKQPYNVDSYSQKNSAKGLLNILKKNDSTGYPRTEGGPSSEMSTSMKRNDATNNQELDKNSTELLNYLKPKPLNDGYENISNKDSSHELLNILHGNKNSSAFNNNVYATDGYSLASDNNENSSNKLLNMLQNRSSAINEPNFDVRSNGTSGSNELLSILHRK
binds: Ebs1-TAP (S. cerevisiae) | [5] | [6]
